Results published in patent US20140163099A1, “ANTIMICROBIAL COMPOSITION” (TAKASAGO INTERNATIONAL CORPORATION, priority 2011, published 2014).
Some results were stated once for a whole list of compounds, not compound by compound.

Columns and labels:
Experiment in all cases: Growth inhibition activity (MIC, agar) against anaerobic bacteria
Format in all cases: cell-based
[1] = test system: Fusobacterium nucleatum (JCM6328)
Experimental: (§1) In the present invention, the growth inhibition activity, which is an indicator of the antimicrobial activity, is evaluated by determining the Minimum Inhibitory Concentration (MIC) with an agar or liquid medium.
(§2) In the test for growth inhibition activity, the following strains were used: • Acne bacteria: Propionibacterium acnes (JCM6473) and (ATCC6919) • Abscess bacteria: Bacteroides fragilis (GAI5560) • Cavity-causing bacteria: Streptococcus mutans (JCM5175), Actinomyces naeslundii (JCM8350) and Actinomyces viscosus (JCM8352) • Periodontal pathogen: Fusobacterium nucleatum (JCM6328), Porphyromonas gingivalis (JCM8525), Prevotella nigrescens (JCM6322)
(§3) The test strains were cultured in a GAM medium (Nissui Pharmaceutical Co., LTD), a Schaedler Broth (BBL) or a Trypticase Soy Broth (BBL) liquid medium, and then the grown bacteria were diluted in saline to prepare turbidity 0.5 McFarland of the bacteria fluids for inoculation. The bacteria were cultured at 37 degrees C. for 3 days under an anaerobic condition by using AnaeroPack® from MGC.
(§4) Furthermore, in order to examine the growth inhibition activities against the bacteria by the above cooling agent, the concentration of the cooling agents: (3S)-CA20, (3R)-CA20, CA1, CA5, CA15, CA55 or CA MGH was diluted with ethanol to the required level of concentrations for the determining the Minimum Inhibitory Concentration to produce the sample liquids.
(§5) Next, 100 μL of each sample liquid was added to 10 mL of a Trypticase Soy Broth agar medium solution in a soluble state, and each agar medium solution was poured into a petri dish and solidified, to prepare the test plates. Subsequently, 5 μL of above the bacteria fluids for inoculation were stamped on the test plates, and then the test plates were cultured at 37 degrees C. for 3 days.
(§6) The minimum concentration of the cooling agent in which the growth of bacteria could not be confirmed was considered as the MIC (Minimum Inhibitory Concentration).
as §6

[2] = test system: Propionibacterium acnes (ATCC6919)
Experimental: as §1, §2, §3, §4, §5, §6, §6

[3] = test system: Propionibacterium acnes (JCM6473)
Experimental: as §1, §2, §3, §4, §5, §6, §6

Measured: growth inhibition activity as multiple of 3-menthoxypropane-1,2-diol

CC1CCC(C(C)C)C(OCCOCCO)C1 (stereo not drawn) [CA55, 2-(2-menthoxyethoxy)ethanol]
more than 2 times: all assays above

CC1CCC(C(C)C)C(OCCO)C1 (stereo not drawn) [CA5, 2-(menthoxy)ethanol]
more than 2 times: all assays above
